## Percent effect of library compounds

The values are deposited in ChEMBL (CHEMBL3988442, “University of Dundee, Small-Polar-MMV Screening Library” (2021)).

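Growth of Mycobacterium tuberculosis over 4 days (cholesterol / DPPC medium with tyloxapol); the read-out is not stated. Concentration: 50 µM. Direction is inferred from retests: higher values go with more growth inhibition. About 69,000 compounds were tested under these conditions; 0.54% (about 370) showed 50% or more at least once.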

Each number is a percent effect as filed. How 0% and 100% were set is not recorded. Most values in the screen are low, and negative values occur. The compounds are a random part of those screened. Two or more numbers in one place are separate tests of the same structure; such repeats can differ widely.

compound,percent effect
CN(C)Cc1cc(=O)n2c(n1)CN(C(=O)Cc1cccs1)CCC2.O=C(O)C(F)(F)F,-11.19
CC(C)C1CN(C(=O)c2ccsc2)CCS1 (centres undefined),8.751
CN(Cc1cc2n(n1)CCN(C(=O)[C@H]1CCCO1)C2)Cc1nccs1,-33.3
Cc1n[nH]c(C2CN(CC(=O)NCc3cccs3)CCO2)n1 (centres undefined),-4.727
N[C@H]1CCCN(C(=O)c2cnc(COc3ccccc3)nc2O)C1,-12.3
COC(C)c1noc(CN2CCCNCC2)n1 (centres undefined),6.892
O=C(c1ccccn1)N1CCCN(Cc2nnc(C3CC3)o2)CC1,-0.3264
CC(=O)Nc1nc(C(=O)NCc2ccc(OC(C)C)nc2)cs1,-10.55
CCc1noc(CNC2CCCN(Cc3noc(C4CC4)n3)C2)n1 (centres undefined),5.503
CC(=O)N(Cc1noc(C2CC2)n1)C1CCN(Cc2cc(C)on2)C1 (centres undefined),5.224
COc1ccccc1CNC(=O)N1CCCC(CO)C1 (centres undefined),-38.56
O=S(=O)(N1CCOCC1)N1CCOC(CCCc2ccccc2)C1 (centres undefined),-2.445
[H][C@@]12CCN(Cc3cccs3)C[C@]1([H])[C@H](c1nc(C)no1)CCO2,-19.42
CC(C)NC(=O)c1cccc(Oc2ccc3nncn3n2)c1,-12.14
CCC(C)C(=O)NS(=O)(=O)c1ccc(C#N)cc1C(F)(F)F (centres undefined),-5.908
CC(=O)c1cn(CC(=O)N2CCC(O)(CO)CC2)c2ccccc12,-15.33
CC1CN(CC(=O)Nc2ccncc2)CCN1Cc1nccn1C (centres undefined),3.297
CC(C)Oc1cccc(Cc2nc3c([nH]2)CCCNC3=O)c1,9.45
O=C1CCCC2=C1C(c1cccc(F)c1F)Nc1nonc1N2 (centres undefined),-8.943
O=C(O)C(F)(F)F.[H][C@]12CCN(C(=O)CC(C)(C)C)CC[C@@]1([H])S(=O)(=O)CCN2C,-1.936 & -7.071
CC(CS(C)(=O)=O)N(C(=O)CCc1cccc(F)c1)C1CC1 (centres undefined),-6.631
Cc1nn(C)c(N(C)C)c1CNC1CCCCNC1=O (centres undefined),17.85
N#Cc1cccc(NC2CC(=O)N(CCc3ccc(F)cc3)C2)n1 (centres undefined),-28
Cc1cc(C)n(CCC(=O)OCC(=O)N2CCc3sccc3C2)n1,-2.49
O=C(c1ccc[nH]1)N1CC2(CCN(c3nccs3)C2)C1,11.06
COC(=O)N1CCCC(C(=O)NCCc2c[nH]c3cc(C)ccc23)C1 (centres undefined),1.615
CCCc1nc(NCC(=O)N2CCOCC2)c2c(n1)c(C)nn2CC,-30.92
CC(C)C(NC(N)=O)C(=O)NCc1ccc(N2CCCC2)nc1 (centres undefined),-9.077
COc1cnc(C2(O)CCN(C(=O)c3ccccn3)CC2)c(OC)n1,9.315
Cn1cnnc1CNC(=O)C1CCCN(Cc2cccc(F)c2)C1 (centres undefined),-23.35
Cc1ccn(CC(=O)NCCCOc2ccccc2F)c(=O)c1,-6.198
O=C(O)C(F)(F)F.O=C(O)C(F)(F)F.[H][C@@]12CN(Cc3ccncc3)C[C@]1([H])[C@@H](OC)CCN2S(=O)(=O)CC,7.686
CCC(CO)N(Cc1ccco1)Cc1c(C)nn(C)c1Cl (centres undefined),-4.537 & -7.315
COc1ccc2nnc(CCCC(=O)NCc3ccccc3)n2n1,3.483
Cc1cnn(C2CCCN(C(=O)c3ccc(OCC4CC4)nc3)C2)c1 (centres undefined),-0.8421
CC(C)n1ccnc1CN1CCOC(CC2CCCCC2)C1 (centres undefined),2.169 & -10.3
Cc1ccc(CN2CCN(c3cncc(N(C)C)n3)CC2=O)cc1C,15.62
[H][C@]12CC[C@]([H])(CN(C(=O)c3c[nH]c(=O)c(Cl)c3)C1)N(Cc1ccccc1)C2,-6.592
CN(C)C(=O)C1OC2(CCNCC2)c2ccccc21.O=C(O)C(F)(F)F (centres undefined),-15.65
CN(C)C(C(=O)N1CCN(CC(F)(F)F)CC1)c1ccccc1F (centres undefined),-6.726
Cc1nc(Cn2cncc(Br)c2=O)no1,-4.823
[H][C@]12CC[C@]([H])(CN(C(=O)c3ccccn3)C1)N(C(=O)CN1CCOC1=O)C2,-2.422
CCC(=O)NCC(=O)NCC1(c2c(F)cccc2F)CCCC1,-3.32
C[C@@H](NC(=O)c1cnccn1)c1c(-c2ccc(F)cc2)noc1C(=O)O,5.647
COCCC(=O)N1CCC(c2cncc(Oc3cccnc3)n2)CC1,-33.13
Cc1nonc1CN(C)c1nc(-c2ccco2)nc2c1CCN(C)CC2,0.8105
Cc1nc(C)c(C(=O)N2C[C@@H](C(=O)O)[C@H](C3CC3)C2)s1,20.22
[H][C@]12CC[C@@]3(N=C(c4ccccc4)NC3=O)[C@@]1([H])CN(CC1CCOCC1)C2,-5.142
OC(c1ccccn1)C1CCN(Cc2cc3n(n2)CCNC3)CC1 (centres undefined),-32.47
O=C(CCc1ccsc1)NCC1CCN(C2CC2)C1 (centres undefined),-1.197
COCCn1cnnc1CCNc1cc(C)nc2ccnn12,5.786 & -5.51
COCC(O)CN1CCC(=O)N(CC=C(C)C)Cc2ccccc21 (centres undefined),19.66
CC(C)c1ocnc1C(=O)N1CC(=O)Nc2cccnc21,-1.342
COc1ccc2cccc(CC(=O)NCc3nccc(N)n3)c2c1,-5.319
Cc1ncccc1OC1(C(=O)NCCCN2CCOCC2)CCNCC1,9.607
Cc1cnn(CC2CCCN2CCCc2nc3ccccc3o2)c1 (centres undefined),41.91
OC1=C2C(=Nc3n[nH]c(O)c3C2c2ccccc2Cl)CCC1 (centres undefined),5.876
Cc1cccc(-c2noc([C@@H]3C[C@@H](O)CN3Cc3ccc(CO)o3)n2)c1,-6.181
Cc1ccccc1NC(=O)CCNC(=O)c1ccoc1,-2.366
CS(=O)(=O)NCCNC(=O)Cc1ccc(Br)s1,8.468
Cc1nn(C(C)C)c(C)c1CN1CCN(C2CCCCC2)C(=O)C1.O=C(O)CC(O)(CC(=O)O)C(=O)O,-13.59 & 4.526
CSC1(CNC(=O)c2cccc(-n3cccn3)c2)CCOCC1,-5.399
O=C(NCCc1nncn1C1CC1)C1SCCc2sccc21 (centres undefined),0.1479
CCCc1cc(NCc2noc(COC)n2)n2nccc2n1,-11.25
CCc1nc(C2CCCN2C(=O)c2cnns2)no1 (centres undefined),-0.9092
Cn1ccnc1COc1ccc(CSc2nnnn2C)cc1,4.373 & 12.73
OCCn1nccc1C1CCN(CCCOc2ccc(F)cc2)CC1,5.524
OCc1ccc(CN2CCC(n3cc(-c4ccc(F)cc4)nn3)CC2)o1,16.19
[H][C@]12CC[C@](O)(CC1)C(COC)N2C(=O)Nc1ccccc1 (some centres undefined),10.78
CC1CN(C)CCN1CC(=O)NCCOc1cccc(F)c1 (centres undefined),6.049
O=S(=O)(Cc1ccc(F)c(Cl)c1)NCCOc1cccnc1,-2.263
COCCN1C(=O)CC[C@]12CC[C@@H](NCc1ccc(OC)cc1)CC2,-5.865

Some entries from above, unchanged:

* O=C(c1ccccn1)N1CCCN(Cc2nnc(C3CC3)o2)CC1 | -0.3264%
* CSC1(CNC(=O)c2cccc(-n3cccn3)c2)CCOCC1 | -5.399%
* COCCC(=O)N1CCC(c2cncc(Oc3cccnc3)n2)CC1 | -33.13%
* COCCN1C(=O)CC[C@]12CC[C@@H](NCc1ccc(OC)cc1)CC2 | -5.865%